Results deposited as PubChem BioAssay AID686943 (Drosophila RNAi Screening Center, 2013)

Assay: 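Search across the genome for regulators of signalling from receptor tyrosine kinase to ERK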 (primary screen)
System: Drosophila S2R+ haemocyte-like cells expressing YFP-tagged ERK (Rolled)
Reagents: long dsRNA against Drosophila genes
Conditions: insulin stimulation versus unstimulated cells; dose and duration not given
Measured: 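Per-plate z-scores of phospho-ERK immunostaining normalised to YFP-tagged ERK, measured with and without insulin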
Reading the numbers: replicate 1, z-score of dpERK with insulin: higher = more active ERK per ERK-YFP after insulin
The screen tested about 23,000 reagents; this is a random part of those with a known target gene and a result. 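Extra replicates exist only for a retested subset of genes; insulin dose and duration not given; both raised and lowered dpERK matter.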 The numbers tell different reagents against one gene apart. Not all columns of the deposit are shown. Reagent sequences are not shown. Not given: the amount of reagent, the time to read-out.

CG10462 → replicate 1, z-score of dpERK with insulin = -0.82
Pus1 → replicate 1, z-score of dpERK with insulin = 1.1
CG32091 #1 → replicate 1, z-score of dpERK with insulin = 1.22
CG32091 #2 → replicate 1, z-score of dpERK with insulin = 0.15
CG18853 → replicate 1, z-score of dpERK with insulin = 0.25
CG32473 #1 → replicate 1, z-score of dpERK with insulin = -0.04
CG32473 #2 → replicate 1, z-score of dpERK with insulin = -0.63
CG10660 → replicate 1, z-score of dpERK with insulin = 0.82
CAH3 → replicate 1, z-score of dpERK with insulin = -0.36
sll → replicate 1, z-score of dpERK with insulin = -0.38
CG32488 #1 → replicate 1, z-score of dpERK with insulin = 0.82
CG32488 #2 → replicate 1, z-score of dpERK with insulin = -0.17
CG3565 → replicate 1, z-score of dpERK with insulin = -0.11
Cirl #1 → replicate 1, z-score of dpERK with insulin = -3.63
Cirl #2 → replicate 1, z-score of dpERK with insulin = 1.57
CG10947 → replicate 1, z-score of dpERK with insulin = 0.13
Sc2 → replicate 1, z-score of dpERK with insulin = 0.61
Vha26 → replicate 1, z-score of dpERK with insulin = -0.54
CG2076 → replicate 1, z-score of dpERK with insulin = 0.3
mlt (retired record) → replicate 1, z-score of dpERK with insulin = -0.1
Pyroxd1 → replicate 1, z-score of dpERK with insulin = -0.26

Targets above whose gene name starts with P or p (2):
Pus1 → replicate 1, z-score of dpERK with insulin = 1.1
Pyroxd1 → replicate 1, z-score of dpERK with insulin = -0.26
